Results are percentages, as filed.
The record does not define 0% and 100%; most values in the screen are far below 50% and negative numbers occur (in some assays of this library far below -100).
The compounds are a random part of those screened.

Sequences of proteins named here, by UniProt entry; tags and fusion partners are left off.
UniProt E9BF75, entry or part of it: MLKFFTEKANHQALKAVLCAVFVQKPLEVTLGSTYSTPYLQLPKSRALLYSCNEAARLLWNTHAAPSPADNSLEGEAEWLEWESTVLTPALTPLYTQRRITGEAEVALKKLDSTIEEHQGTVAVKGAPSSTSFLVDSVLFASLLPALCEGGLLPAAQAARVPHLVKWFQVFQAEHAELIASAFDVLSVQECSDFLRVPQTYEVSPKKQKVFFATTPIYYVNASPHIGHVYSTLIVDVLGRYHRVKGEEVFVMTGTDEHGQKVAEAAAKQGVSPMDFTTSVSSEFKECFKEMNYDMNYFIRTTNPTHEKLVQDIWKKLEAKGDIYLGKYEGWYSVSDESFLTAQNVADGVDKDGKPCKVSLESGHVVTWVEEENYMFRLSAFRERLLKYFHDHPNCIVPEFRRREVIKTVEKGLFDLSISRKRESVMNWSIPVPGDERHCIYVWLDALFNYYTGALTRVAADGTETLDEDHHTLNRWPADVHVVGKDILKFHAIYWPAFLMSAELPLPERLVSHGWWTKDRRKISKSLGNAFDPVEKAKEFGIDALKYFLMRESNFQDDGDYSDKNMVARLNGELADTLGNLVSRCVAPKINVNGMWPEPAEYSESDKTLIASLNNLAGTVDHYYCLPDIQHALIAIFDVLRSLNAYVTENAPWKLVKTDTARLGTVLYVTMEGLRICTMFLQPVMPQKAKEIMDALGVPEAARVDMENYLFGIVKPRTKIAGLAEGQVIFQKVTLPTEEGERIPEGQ

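Methionyl-tRNA synthetase (putative), Leishmania donovani (UniProt E9BF75). Primary screen of methionyl-tRNA synthetase; the read-out is not stated. The test concentration is not given. The values are filed as inhibition. Size under these conditions: about 68,000 compounds, about 24 of them at 50% or above in at least one test.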

SMILES,inhibition
CC(NC(=O)NCCn1ccnc1)c1ccc2c(c1)NC(=O)CO2 (stereo not given),7.042%
O=C(NC1CC1)C1CN(C(=O)c2cnccn2)C1,12.23%
Nc1ncccc1CN1C[C@H]2OC(=O)N(Cc3ccccn3)[C@H]2C1,10.65%
CC(=O)N1CCCC1c1nc(C)cc(-c2ccc(F)cc2)n1 (stereo not given),15.62%
CC(C)Cc1nc(CSC2CCCN(c3cnn(C)c3)C2=O)no1 (stereo not given),19.26%
Cc1cccc(CN2CC[C@@H]3[C@@H]2CCN3C(=O)c2cc(C)oc2C)n1,11.24%
OCc1cn(Cc2cccc(C(F)(F)F)c2)nn1,13.48%
CN(Cc1ccncc1)C(=O)c1ccc2c(c1O)OC(C)(C)C2,8.696%
CS(=O)(=O)N1CCC(C(=O)NCCNc2ncccn2)CC1,11.11%
CCc1nc(CN2CCCN(c3nccs3)CC2)no1,4.453%
Cc1ccc(CNC(C)c2cc(F)ccc2N2CCN(C)CC2)o1 (stereo not given),3.621%
CN(C)C(=O)CN1CCC(c2c(C(N)=O)sc3ncccc23)C1 (stereo not given),11.63%
COc1cccn(CC(=O)N(C)Cc2ccoc2)c1=O,17.5%
O=C(NC1CCc2c(ccc(=O)n2CC2CC2)C1)c1ccsc1 (stereo not given),13.59%
COCCCC1(CO)CCCN(C(=O)c2cnc(C3CC3)nc2)C1 (stereo not given),8.362%
CC(C)c1csc(C2CCCN(C(=O)c3ccc(=O)n(C)n3)C2)n1 (stereo not given),4.089%
Cc1cnn(CC(C)NCc2cccnc2)c1 (stereo not given),8.303%
Cc1nn(C)c2ncc(S(=O)(=O)N3CCCC(C)CC3)cc12 (stereo not given),9.61%
NC(=O)CN1CCCN(C(=O)c2ccc(SC(F)F)cc2)CC1,15.19%
CCc1cc2c(N3CCCC(c4cc(C(N)=O)[nH]n4)C3)ncnc2s1 (stereo not given),16.25%
Cc1ccccc1-c1noc(CN2CCOC(Cn3cccn3)C2)n1 (stereo not given),11.48%
Cc1nc(CNC(=O)c2cc(COc3cccc(F)c3)[nH]n2)n[nH]1,11.48%
Cc1cccc(Cn2ccc(NS(C)(=O)=O)n2)c1,15.75%
O=C(c1ccc2sccc2c1)N1CCC(C(=O)O)(n2cccn2)CC1,1.272%
COc1ccc(-n2ncc(C(C)NC3CCOCC3)c2C)cc1 (stereo not given),0.4963%
CCOc1ccccc1C(C(=O)O)N(C)Cc1cc(C)[nH]n1 (stereo not given),15.87%
COCC(=O)NC(CC(C)C)c1nc2cccnc2n1C (stereo not given),-1.064%
COc1ccc(C(=O)C2CCCN(Cc3cccc(F)c3)C2)c(OC)c1 (stereo not given),5.199%
Cc1csc(N2CCCN(C(=O)C3(C#N)CCCC3)CC2)n1,13.66%
Cc1cc(NC(C)c2nnn[nH]2)n2nc(C)c(C)c2n1 (stereo not given),4.336%
COCc1noc(CN2CCCCC2CCc2cccs2)n1 (stereo not given),11.75%
O=C(c1ccco1)N1C[C@H]2CCCN(Cc3ccncc3)[C@H]2C1,1.307%
N#CC1(C(=O)NCC2CCC3(CCNCC3)O2)CC1 (stereo not given),2.222%
CC(C(=O)O)n1nc(C(F)(F)F)c(Cl)c1C1CC1 (stereo not given),28.04%
CC(=O)NC1CCN(c2nc(C)nc3c2c(C)nn3C)C1 (stereo not given),1.064%
Cc1n[nH]c(C2CN(CC(=O)NCCc3ccc(F)cc3)CCO2)n1 (stereo not given),21.56%
CCN(CC)CCc1nc2c([nH]1)CC(c1ccc(Cl)cc1)CNC2=O (stereo not given),9.582%
CC(C)(C)NC(=O)CN1CCCN(Cc2ccc(C#N)cc2)CC1,11.57%
Cc1ccc(NC(=O)CS(=O)(=O)NC2CCC(C)CC2)nc1 (stereo not given),15.32%
NC(=O)Cc1ccc(NC(=O)C2CCOCC2)cc1,11.11%
COc1cccc(-n2cc(CN(C)Cc3ccnc(C(C)C)n3)cn2)c1,19.68%
CCCS(=O)(=O)N1CCC(NC(=O)c2cc(C)c(CC)s2)CC1,14.63%
Cc1cc(C)nc(C2CCN(C3CCOCC3)C2)n1 (stereo not given),14.36%
Cc1ccc2cc(C3(O)CCN(C(=O)[C@@H]4CCCCN4)CC3)ccc2n1,3.371%
CS(=O)(=O)NC1CCN(C(=O)COCc2ccccc2)CC1,5.208%
O=S(=O)(Cc1ccccc1)NCc1nnc2n1CCC2,13.99%
Cc1csc2ncc(-c3ccnc(N4CCN(C)CC4)n3)c(=O)n12,-7.692%
CC1(C)CC(=O)c2cnc3nc(N4CCCCC4)nc(O)c3c2C1,17.69%
Cc1nc(Cn2c3c(ccc2=O)CC(NC(N)=O)CC3)cs1 (stereo not given),4.156%
c1ncn(CC2CCCN2Cc2cn3ccsc3n2)n1 (stereo not given),4.294%
CS(=O)(=O)NCc1ncn2c1CN(CCN1CCCC1)CCC2,1.333%
CC(C)(C)n1ncc2c1CCCC2NCc1ccc2c(c1)OCCO2 (stereo not given),24.31%
Cc1ccccc1-n1nccc1NC(=O)CCOC(C)C,11.67%

Some entries from above, unchanged:

| SMILES | inhibition |
|---|---|
| `Cc1csc(N2CCCN(C(=O)C3(C#N)CCCC3)CC2)n1` | 13.66% |
| `CC1(C)CC(=O)c2cnc3nc(N4CCCCC4)nc(O)c3c2C1` | 17.69% |
| `O=C(NC1CC1)C1CN(C(=O)c2cnccn2)C1` | 12.23% |
| `Cc1cc(NC(C)c2nnn[nH]2)n2nc(C)c(C)c2n1` (stereo not given) | 4.336% |

The values are deposited in ChEMBL (CHEMBL3988442, “University of Dundee, Small-Polar-MMV Screening Library” (2021)).